The campaign covered roughly 300,000 compounds. About 5,400 (1.8%) were called active. The inconclusive results got no clear call from the source; some entries with a clear call stand among them for comparison. The call rests on the fitted dose curve; tested in HEK293 cells. Where the call is inconclusive, the potency comes from a doubtful curve fit.
Test: qHTS for inhibitors of binding or entry into cells for Marburg Virus
Settings: Marburg virus pseudotyped entry inhibition, cell reporter; activity change, negative = inhibition: at 37.8 µM (top of the series) unless noted
On the % scale 0 is the no-effect control and ±100 the full control effect; potency means the concentration at half of the fitted maximal effect.

Row | Structure (SMILES) | Potency | activity change, negative = inhibition
1 | CCOC(=O)c1c(NC(=O)CC2SC(=NC)N(C)C2=O)sc(C)c1C (configuration not stated) | inconclusive: 1.64 µM [inhibitor, partial curve, poor fit] | 
2 | COc1cc(-c2nnc(SCCOc3ccc(Cl)cc3)o2)cc(OC)c1OC |  | inactive: 2.43% [at 46.1 µM]
3 | CCOC(=O)c1c(/N=C/N(C)C)sc2c1CCC2 | inconclusive: 3.16 µM [activator, single point] | 
4 | CC1CCCCN1CCCNC(=O)c1ccc2c(=O)n(CCc3ccccc3)c(=O)[nH]c2c1 (configuration not stated) | inconclusive: 29.1 µM [inhibitor, single point] | 
5 | Cc1ccc(NC(=O)CC(=O)c2ccc([N+](=O)[O-])cc2)cc1S(=O)(=O)Nc1cccc(Cl)c1 | inconclusive: 20.6 µM [inhibitor, partial curve, poor fit] | 
6 | O=C(N/N=C/c1ccccn1)c1c[nH]c2ccccc12 | inconclusive: 3.16 µM [activator, partial curve, poor fit] | 
7 | COc1ccc(N2CCN(C(=O)c3ccc(CNS(=O)(=O)c4cccc(OC)c4)cc3)CC2)cc1 |  | inactive: -18.6% [at 46.1 µM]
8 | CN(C)S(=O)(=O)c1cccc(NC(=O)c2ccc(OC(F)(F)F)cc2)c1 | inconclusive: 0.0891 µM [inhibitor, full curve, poor fit] | 
9 | COc1ccc(CNC(=O)c2ccc(S(=O)(=O)N3CCCC3)cc2)cc1OC |  | inactive: -2.41% [at 46.1 µM]
10 | CCc1ccc(N2CC(C(=O)Nc3cccc(S(=O)(=O)N4CCCC4)c3)CC2=O)cc1 (configuration not stated) | inconclusive: 0.112 µM [inhibitor, full curve, poor fit] | 
11 | O=C(O)Cn1cnc2ccccc2c1=O |  | inactive: 0.833%
12 | O=C(COc1ccccc1F)NC1CC1 | inconclusive: 3.26 µM [activator, full curve] | 
13 | CCOc1ccc(S(=O)(=O)Nc2cccc(C(=O)N3CCN(C(C)=O)CC3)c2)cc1 | inconclusive: 0.316 µM [inhibitor, full curve, poor fit] | 
14 | CC1CN(c2nc3c(c(=O)n(Cc4ccc(Cl)cc4)c(=O)n3C)n2C)CC(C)O1 (configuration not stated) | inconclusive: 5.17 µM [inhibitor, partial curve, poor fit] | 
15 | CCOCCCNC(=O)C1CCN(C(=O)c2cc3sccc3n2C)CC1 |  | inactive: -0.394% [at 46.1 µM]
16 | COc1ccc(CCC(=O)OCc2csc(CC(=O)Nc3ccccc3C)n2)cc1 | inconclusive: 6.31 µM [inhibitor, single point] | 
17 | O=C(Cc1cccs1)N/N=C/C=C/c1ccccc1[N+](=O)[O-] |  | inactive: -25.1% [at 14.2 µM]
18 | CCC(C)NC(=O)CSC1=Nc2ccccc2C2=NC(c3ccccc3)C(=O)N12 (configuration not stated) | inconclusive: 9.2 µM [activator, partial curve, poor fit] | 
19 | CCCc1[nH]nc2c1C(/C(C)=C/c1ccccc1)C(C#N)=C(N)O2 (configuration not stated) | inconclusive: 20.6 µM [inhibitor, single point] | 
20 | O=C(CSc1n[nH]c(-c2ccco2)n1)Nc1sc2c(c1C(=O)Nc1ccccc1)CCCC2 | inconclusive: 23.1 µM [inhibitor, single point] | 
21 | COc1ccc(OC)c(CN2CCN(C(=O)[C@@H](NC(=O)c3cccc(C)c3)C(C)C)CC2)c1 | inconclusive: 22.4 µM [inhibitor, single point] | 
22 | CSc1ccccc1C(=O)N1CCCC(CCC(=O)NCc2ccc(F)c(F)c2)C1 (configuration not stated) | inconclusive: 17.8 µM [inhibitor, single point] | 
23 | COc1ccccc1Oc1ccc(-c2cnc3ccccc3n2)cc1[N+](=O)[O-] | inconclusive: 14.1 µM [inhibitor, partial curve, poor fit] | 

Quoted from above: nos. 5–10
Row | Structure (SMILES) | Potency | activity change, negative = inhibition
5 | Cc1ccc(NC(=O)CC(=O)c2ccc([N+](=O)[O-])cc2)cc1S(=O)(=O)Nc1cccc(Cl)c1 | inconclusive: 20.6 µM [inhibitor, partial curve, poor fit] | 
6 | O=C(N/N=C/c1ccccn1)c1c[nH]c2ccccc12 | inconclusive: 3.16 µM [activator, partial curve, poor fit] | 
7 | COc1ccc(N2CCN(C(=O)c3ccc(CNS(=O)(=O)c4cccc(OC)c4)cc3)CC2)cc1 |  | inactive: -18.6% [at 46.1 µM]
8 | CN(C)S(=O)(=O)c1cccc(NC(=O)c2ccc(OC(F)(F)F)cc2)c1 | inconclusive: 0.0891 µM [inhibitor, full curve, poor fit] | 
9 | COc1ccc(CNC(=O)c2ccc(S(=O)(=O)N3CCCC3)cc2)cc1OC |  | inactive: -2.41% [at 46.1 µM]
10 | CCc1ccc(N2CC(C(=O)Nc3cccc(S(=O)(=O)N4CCCC4)c3)CC2=O)cc1 (configuration not stated) | inconclusive: 0.112 µM [inhibitor, full curve, poor fit] | 

More compounds

Row | Structure (SMILES) | Potency | activity change, negative = inhibition
24 | Cc1c(CC(=O)NCC(C)C)c(=O)oc2cc3c(cc12)CCC(C)(C)O3 |  | inactive: 2.77% [at 46.1 µM]
25 | COc1ccc(/C=N/NC(=O)c2cccc(Br)c2)cc1CSc1ccccn1 | inconclusive: 14.1 µM [inhibitor, partial curve, poor fit] | 
26 | COc1ccc(-n2c(SCc3ccccn3)nc3c(c2=O)SCC3)cc1OC | inconclusive: 35.5 µM [inhibitor, single point] | 
27 | Cc1c(C(=O)N2CCCCC2)c(S(=O)(=O)Nc2cccc(Br)c2)c(C)n1C | inconclusive: 3.98 µM [inhibitor, partial curve, poor fit] | 
28 | O=C(N/N=C/c1cc(Cl)ccc1O)c1cccnc1 | inconclusive: 3.55 µM [inhibitor, full curve, poor fit] | 
29 | Cc1ccccc1N(CC(=O)N/N=C/c1ccc(N(C)C)cc1)C(=O)c1ccccc1 | inconclusive: 29.1 µM [inhibitor, single point] | 
30 | COC(=O)c1c(C#N)c(N)nc2c1CCC2 |  | inactive: 4.5%
31 | COc1ccc(OCC(=O)Nc2ccc3c(c2)nc(CCNC(C)=O)n3C)cc1 |  | inactive: 3.69% [at 46.1 µM]
32 | COC(=O)C1=C(C)N(Cc2ccco2)C(=O)NC1c1ccc(Br)cc1 (configuration not stated) | inconclusive: 5.96 µM [inhibitor, single point] | 
33 | CCN(CC)c1nc2n(c(=S)n1)CCS2 | inconclusive: 6.51 µM [activator, single point] | 
34 | NC(=O)c1cc([N+](=O)[O-])ccc1N1CCCCC1 | inconclusive: 0.891 µM [inhibitor, full curve, poor fit] | 
35 | COc1ccc(NS(=O)(=O)c2ccc(C)c(C(=O)NCC(c3cccs3)N3CCOCC3)c2)cc1 (configuration not stated) |  | inactive: 17.2%
36 | O=C(/C=C/c1ccccc1Cl)Nc1ccc(Cl)cn1 |  | inactive: 11.3% [at 46.1 µM]
37 | CCOC(=O)N1CCN(C(=O)c2cc(COc3ccc(OC)cc3Cl)on2)CC1 | inconclusive: 25.1 µM [inhibitor, single point] | 
38 | Clc1cccc(-c2nc(NCCN3CCOCC3)c3ccccc3n2)c1 | inconclusive: 8.91 µM [inhibitor, partial curve, poor fit] | 
39 | CC(C)N1CCN(S(=O)(=O)c2ccccc2)c2ccccc21 | inconclusive: 15.8 µM [inhibitor, single point] | 
40 | COc1ccccc1-n1cnc2sc(-c3ccccc3)cc2c1=O | inconclusive: 3.55 µM [activator, single point] | 
41 | COc1cccc(CN2CCNC(=O)C2CC(=O)N(C)C2CCCCC2)c1 (configuration not stated) |  | inactive: -19.9% [at 46.1 µM]
42 | O=C(/C=C/c1cccc(C(F)(F)F)c1)Nc1cccc(C(F)(F)F)c1 | inconclusive: 18.3 µM [inhibitor, single point] | 
43 | ON(CCc1ccncc1)Cc1ccccc1 |  | inactive: -29.8% [at 46.1 µM]
44 | COc1ccc(-c2csc(Nc3ccc(O)cc3)n2)cc1 | inconclusive: 31.6 µM [inhibitor, partial curve, poor fit] | 
45 | O=[N+]([O-])c1ccc(S(=O)(=O)N2CCN(Cc3c[nH]c4ccccc34)CC2)cc1 |  | inactive: -18.6%
46 | O=C(Cc1ncc(C(F)(F)F)cc1Cl)NCc1ccco1 | inconclusive: 6.31 µM [inhibitor, single point] | 

Row | Structure (SMILES) | Potency | activity change, negative = inhibition
47 | COCc1cc(C)nc2sc(C(=O)Nc3ccccc3OC)c(N)c12 | inconclusive: 35.5 µM [inhibitor, single point] | 
48 | CC(C)c1ccc(NC(=O)c2ccc3c(c2)CCN3S(=O)(=O)c2ccccc2)cc1 | inconclusive: 11.2 µM [inhibitor, single point] | 
49 | CCOC(=O)c1csc(NNC=O)n1 | inconclusive: 3.55 µM [activator, partial curve, poor fit] | 
50 | CCCCOP(=O)(c1ccc(N(C)C)cc1)C(O)c1ccc(N(C)C)cc1 (configuration not stated) | inconclusive: 6.31 µM [inhibitor, single point] | 
51 | CCOC(=O)CC(=O)CSc1nc2sc(C)cc2c(=O)n1Cc1ccco1 |  | inactive: -4.7%
52 | COc1ccc(CN(C)CCc2ccccn2)cc1OC | inactive | 
53 | Cc1cc(C=O)c(C)n1-c1ccc(N2CCOCC2)c([N+](=O)[O-])c1 | inconclusive: 14.1 µM [inhibitor, partial curve, poor fit] | 
54 | Cc1cccc(C(=O)O/N=C/c2ccc(Br)cc2)c1 |  | inactive: -11.9% [at 46.1 µM]
55 | CCOc1ccccc1C(=O)NC1(C(F)(F)F)NC(=O)N(CCc2ccc(OC)c(OC)c2)C1=O (configuration not stated) | inconclusive: 35.5 µM [inhibitor, single point] | 
56 | CCOc1ccccc1NC(=S)N1C2CCC1CC(NC(=O)NC13CC4CC(CC(C4)C1)C3)C2 (configuration not stated) | inconclusive: 10.3 µM [inhibitor, partial curve, poor fit] | 
57 | CC(C)(C)NC(=O)CN(CCN1CCOCC1)C(=O)CNS(=O)(=O)c1ccccc1 |  | inactive: -14.7% [at 46.1 µM]
58 | Cc1cc(F)ccc1S(=O)(=O)Nc1ccc2oc3c(c2c1)CC(C)CC3 (configuration not stated) | inconclusive: 11.2 µM [inhibitor, partial curve, poor fit] | 
59 | COc1ccccc1CN(C)CC(=O)Nc1cccc(S(=O)(=O)N2CCCCC2)c1 | inconclusive: 35.5 µM [inhibitor, single point] | 
60 | Clc1ccc(CSc2nnc(-c3ccncc3)s2)cc1 | inconclusive: 0.891 µM [inhibitor, single point] | 
61 | NC(=O)c1ccccc1NC(=O)Nc1ccc(F)c(Cl)c1 | inconclusive: 29.1 µM [activator, single point] | 
62 | Cc1cc(C)cc(NC(=S)Nc2ccc(Cl)c(Cl)c2)c1 | inconclusive: 35.5 µM [inhibitor, partial curve, poor fit] | 
63 | S=C(NC1CC1)N1CCN(c2ccc(Cl)cc2)CC1 |  | inactive: -1.73%
64 | Cc1sc2nc(CN3CCOCC3)[nH]c(=O)c2c1-c1ccccc1 | inconclusive: 2.24 µM [inhibitor, partial curve] | 
65 | NC(=O)C1(N2CCCCC2)CCN(CC(=O)Nc2ccccc2-c2ccccc2)CC1 | inconclusive: 2.59 µM [inhibitor, partial curve, poor fit] | 
66 | Cc1ccc(-n2c(SCc3ccc(C#N)cc3)nnc2-c2ccccn2)cc1 |  | inactive: -9.55%
67 | O=C(NCc1ccc2c(c1)OCO2)c1ccc(NC(=O)C2CCCO2)cc1 (configuration not stated) | inconclusive: 0.259 µM [activator, single point] | 
